For some of these results: Where a sequence shows no end group, the ends are not given. Strings that start with PEPTIDE1 are HELM notation: dots part the residues, brackets hold end groups and non-standard residues.

The nature of the first series: peptide synthesis. The settings on record: whole synthesis.
Consider “PEPTIDE1{A.C.G.L.S.G.L.G.V.A.[am]}$$$$V2.0”, for which the “final purity (method not given)” value is reported as 97%.
Consider “PEPTIDE1{A.C.G.L.S.G.A.G.V.A.[am]}$$$$V2.0”, for which the “final purity (method not given)” value is reported as 99%.
“PEPTIDE1{A.C.G.L.A.G.L.G.V.A.[am]}$$$$V2.0”: the “final purity (method not given)” value is reported as 96%.
Same read-out and setting: to ACGLSALGVA belongs 98%.

A further series is described as follows: general procedure: Fmoc solid-phase peptide synthesis; Fmoc-Rink-MBHA resin (0.56 mmol/g); DIC/Oxyma. The settings on record: whole synthesis.
Turning to “PEPTIDE1{A.A.G.L.S.G.L.G.V.A.[am]}$$$$V2.0”, the “final purity (method not given)” value is >99%.
The same measure, in the same setting: to “PEPTIDE1{A.C.A.L.S.G.L.G.V.A.[am]}$$$$V2.0” belongs 94%; to “PEPTIDE1{A.C.G.A.S.G.L.G.V.A.[am]}$$$$V2.0”, >99%.
